This assay is described as follows: qHTS Assay for Modulators of Lamin A Splicing. The settings on record: HeLa LMNA splicing GFP/RFP minigene ratio, 48 h. The procedure, abridged:
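S3 HeLa stable clones carrying a lamin A-EGFP splicing minigene plus DsRed2 were seeded at 600 cells/well in Opti-MEM with 2% FBS, pin-dosed and incubated 48 h at 37°C. Acumen cytometry (488 nm) gave the GFP/RFP total-intensity ratio.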

The mark [1] stands for this setting: measured here: RFP viability control channel.
[2] abbreviates: measured here: GFP splicing reporter channel.

AC50 data for 54 compounds are collected here from PubChem BioAssay AID1487 (National Center for Advancing Translational Sciences (NCATS), 2009).

“And” between values parts separate entries of the source, which are not always exact repeats. Identical values can stand only once. The list shows a part of the results. These are further read-outs of the screen, such as a control signal, another cell line or another target. No call is given for them. Most of these compounds were active or inconclusive in the main read-out, so they are no random draw. Words in brackets tell the shape of the fitted curve; partial curves, single points and poor fits give uncertain potencies.

As to `COc1ccc(/C=C/C(=O)C(C(N)=O)=C2SCCS2)cc1`, the AC50 under setting [1] was 11.2 µM [rising, partial curve].
As to `Cc1c(CNC(=O)C2CC2)c(-n2cccc2)n(Cc2ccccc2)c1C`, the AC50 runs as follows: under setting [2], 0.0708 µM [falling, full curve, poor fit]; under setting [1], 0.00501 µM [falling, full curve, poor fit].
Regarding `COc1ccc(NCc2nnc3n2CCCCC3)c(OC)c1`, the AC50 under setting [2] was 2.51 µM [rising, single point].
As for `O=C(CN1C(=O)C2(SCC(=O)N2c2ccc(F)cc2)c2ccccc21)NCCc1ccccc1` (stereo unspecified), under setting [1], the AC50 was 0.794 µM [falling, full curve, poor fit].
As to `CC1C2NC(=O)N(Cc3ccccc3)C1(C)Oc1ccccc12` (stereo unspecified), the AC50 is 35.5 µM [falling, single point] under setting [2] and 3.16 µM [falling, partial curve, poor fit] under setting [1].
As to `COCc1[nH][nH]c(=O)c1C=Nc1ccc(C(F)(F)F)cc1`, the AC50 under setting [2] is 0.0891 µM [rising, full curve, poor fit].
Regarding `NC(=O)c1cccn1Cc1ccccc1Cl`, the AC50 under setting [1] is 0.0447 µM [falling, full curve, poor fit].
Consider `O=C(O)c1cccnc1`, for which the AC50 under setting [2] is 35.5 µM [rising, single point].
For the compound `COc1cccc(-c2cc(C(F)(F)F)nc(-n3ccc([N+](=O)[O-])n3)n2)c1`, the AC50 under setting [2] is 5.62 µM [falling, partial curve, poor fit] and the AC50 under setting [1] was 0.316 µM [falling, full curve].
Turning to `CCCC(=O)Nc1ccc(Sc2ccc([N+](=O)[O-])cc2)cc1`, the AC50 is, setting by setting: under setting [2], 35.5 µM [rising, single point]; under setting [1], 35.5 µM [rising, single point].
As for `CCCCN(CCCC)C(=O)CSc1nnc(-c2cc(OC)c(OC)c(OC)c2)o1`, the AC50 under setting [1] is 12.6 µM [rising, partial curve, poor fit].
For `O=C(c1ccccc1F)N1CCN(Cc2ccccc2F)CC1`, the AC50 under setting [1] is 15.8 µM [rising, single point].
On to `COc1ccc(CNC(=O)C(c2cccs2)N(Cc2ccco2)C(=O)Cc2cccs2)cc1` (stereo unspecified), for which the AC50 under setting [1] was 35.5 µM [rising, single point].
`O=S(=O)(c1ccc(OCC2CO2)cc1)c1ccc(OCC2CO2)cc1` (stereo unspecified): the AC50 under setting [1] was 3.16 µM [rising, single point].
For `CCC(=O)NNC(=O)CCC(=O)Nc1cccc(Cl)c1C`, the AC50 under setting [2] was 0.00316 µM [falling, full curve].
For `Cc1c(Cl)c(C(=O)NC2C3CC4CC(C3)CC2C4)nn1C` (stereo unspecified), the AC50 reads like this: under setting [2], 14.1 µM [falling, partial curve, poor fit]; under setting [1], 25.1 µM [falling, single point].
As to `CNC(=O)C1CCC(Cn2c(=O)c3sccc3n(CC(=O)Nc3cc(F)ccc3F)c2=O)CC1` (stereo unspecified), the AC50 under setting [2] is 0.562 µM [falling, full curve, poor fit].
On to `COc1cn(CC(=O)Nc2cc(C)ccc2C)c(CN2CCCCC2)cc1=O`, for which the AC50 by setting is: under setting [2], 0.0251 µM [rising, full curve]; under setting [1], 2.24 µM [rising, single point].
As to `CCN1C(=O)CS/C1=N\S(=O)(=O)c1ccc(Cl)cc1`, the AC50 is, setting by setting: under setting [2], 0.112 µM [falling, full curve]; under setting [1], 1.41 µM [falling, full curve].
Turning to `CCOC(=O)c1cc2c(ccn2C)n1CC(=O)N(Cc1ccccc1)c1ccccc1`, the AC50 is 17.8 µM [rising, single point] under setting [2] and 22.4 µM [rising, single point] under setting [1].
Take `CC(C)CNS(=O)(=O)c1ccc(NC(=O)Cn2nc(-c3ccc(F)cc3)ccc2=O)cc1`: the AC50 under setting [1] was 35.5 µM [rising, single point].
Turning to `CCCCn1nc(NC(=O)c2cccs2)c2cc3cc(OC)ccc3nc21`, the AC50 under setting [1] was 35.5 µM [rising, single point].
In the case of `O=C(O)c1ccc2c(=O)[nH]c(CCl)nc2c1`, the AC50 under setting [2] is 11.2 µM [falling, single point].
In the case of `CCCn1nc(Oc2nc(NC(C)C)nc(N(C)C)n2)ccc1=O`, the AC50 under setting [1] is 0.00891 µM [falling, full curve, poor fit].
For `CCCC(=O)O[C@]1(C(=O)CO)CCC2[C@@H]3CCC4=CC(=O)CC[C@]4(C)C3C(O)C[C@]21C` (stereo partly specified), the AC50 is 3.16 µM [falling, partial curve, poor fit] under setting [2] and 35.5 µM [falling, single point] under setting [1].
Turning to `Cc1cccc(N(C)C(=S)Oc2ccc3ccccc3c2)c1`, the AC50 reads like this: under setting [2], 1.26 nM [falling, full curve, poor fit] and 31.6 nM [falling, full curve, poor fit]; under setting [1], 14.1 µM [falling, single point] and 35.5 µM [rising, single point].
As for `CC(C)NC(=O)c1ccccc1NC(=O)C1COc2ccccc2O1` (stereo unspecified), the AC50 by setting is: under setting [2], 31.6 µM [rising, single point]; under setting [1], 31.6 µM [rising, single point].
Consider `COc1ccc(Nc2ccc(S(=O)(=O)N3CCCCC3)cc2[N+](=O)[O-])cc1`, for which the AC50 reads like this: under setting [2], 12.6 µM [rising, single point]; under setting [1], 12.6 µM [rising, partial curve].
For the compound `CCOC(=O)c1[nH]c2ccc(OC)cc2c1NS(=O)(=O)c1ccc(Cl)s1`, the AC50 is, setting by setting: under setting [2], 25.1 µM [rising, single point]; under setting [1], 35.5 µM [rising, single point].
On to `CCc1nnc(NC(=O)CSc2nc3c(c(=O)n2C)SC(C)C3)s1` (stereo unspecified), for which, under setting [1], the concentration at half-maximal activity (AC50) was 35.5 µM [rising, single point].
Take `O=C1CN(c2ccc(Br)cc2)C(=O)N1CC(=O)N1CCCc2ccccc21`: the AC50 is 11.2 µM [rising, partial curve, poor fit] under setting [2] and 15.8 µM [rising, partial curve] under setting [1].
As for `CCCCC/C=C\C/C=C\CCCCCCCC(=O)O`, the AC50 under setting [1] is 0.178 µM [rising, full curve].
Consider `COc1ccc(N2CCN(C(=O)CCCSc3nc4ccccc4[nH]3)CC2)cc1`, for which the AC50 under setting [2] was 12.6 µM [rising, single point] and the AC50 under setting [1] is 17.8 µM [rising, single point].
As to `COc1cc(C2c3c(-c4cc(C)cc(C)c4O)n[nH]c3C(=O)N2CCCO)cc(OC)c1OC` (stereo unspecified), the AC50 under setting [2] is 31.6 µM [rising, single point].
For `CC(C)(C)NC(=O)NC(=O)COC(=O)Cn1cnc2ccccc2c1=O`, the AC50 under setting [1] is 20 µM [falling, single point].
On the same count and under the same terms, next, `O=C(CSc1nnc(NC(=O)C2CC2)s1)Nc1ccc2c(c1)OCCO2`: 2.82 µM [falling, partial curve, poor fit].
Take `CNC(=O)CCSSCCC(=O)NC`: the AC50 by setting is: under setting [2], 8.91 µM [falling, partial curve, poor fit]; under setting [1], 8.91 µM [falling, partial curve, poor fit].
Turning to `O=C(O)c1ccc2c(=O)n3c(nc2c1)/C(=C/c1ccccc1C(F)(F)F)CCCC3`, the AC50 under setting [2] was 0.794 µM [falling, full curve, poor fit].
For the compound `CCCCN(C)C(=O)c1cc2cc3cc(OC)ccc3nc2o1`, under setting [1], the AC50 is 0.0178 µM [falling, full curve].
`N#CC1=C(N)C2=CCCC[C@H]2[C@H](c2ccccc2)C1(C#N)C#N`: the AC50 was 22.4 µM [rising, single point] under setting [2] and 35.5 µM [rising, single point] under setting [1].
As to `CCc1ccccc1OCC(=O)OCC(=O)c1c(N)n(C)c(=O)n(C)c1=O`, the AC50 under setting [2] is 0.00447 µM [rising, full curve, poor fit].
As to `CCCc1cc(-c2[nH]ncc2-c2ccc3c(c2)OCCCO3)c(O)cc1OC`, under setting [1], the AC50 was 12.6 µM [rising, partial curve].
As for `C=CCNC1=C2C[C@@H](C)C[C@H](OC)[C@H](O)[C@@H](C)/C=C(\C)[C@H](OC(N)=O)[C@@H](OC)/C=C\C=C(/C)C(=O)NC(=CC1=O)C2=O`, the AC50 was 0.00178 µM [falling, full curve, poor fit] under setting [2] and 11.2 µM [rising, partial curve] under setting [1].
Consider `O=C(Nc1cccs1)Nc1c(F)c(F)c(F)c(F)c1F`, for which the AC50 under setting [1] is 25.1 µM [rising, partial curve, poor fit].
On the same count and under the same terms, next, `Cc1cc(C)c(Nc2ncccc2C(=O)O)c(C)c1`: 0.00891 µM [falling, full curve, poor fit].
Consider `Cc1ccc(CNC(=O)C(=O)NCC(c2cccnc2)N2CCN(c3ccccc3F)CC2)cc1` (stereo unspecified), for which the AC50 reads like this: under setting [2], 25.1 µM [falling, partial curve]; under setting [1], 25.1 µM [falling, partial curve].
With `Cc1ccc2nsnc2c1S(=O)(=O)N1CCCC1C(=O)O` (stereo unspecified), the half-maximal activity concentration (AC50) under setting [1] is 5.62 µM [falling, single point].
Regarding `O=C(NCC1CCCO1)C(c1ccncc1)N(Cc1cccs1)C(=O)Cn1nnc(-c2ccc(F)cc2)n1` (stereo unspecified), the AC50 under setting [2] is 2.24 µM [falling, partial curve, poor fit].
With `CC12CN3CCN(CC(C3)C1(O)CN1CCOCC1)C2` (stereo unspecified), under setting [1], the AC50 was 3.16 µM [falling, partial curve, poor fit].
On to `O=C(COC(=O)c1n[nH]c2ccccc12)NC(=O)NCc1ccco1`, for which the AC50 under setting [2] is 12.6 µM [rising, partial curve, poor fit].
Regarding `COCc1cnc(C)nc1N`, the AC50 under setting [1] is 7.94 µM [rising, partial curve, poor fit].
Consider `CC1=CC(C)(C)Nc2ccc(OC(=O)CN3C(=O)c4ccccc4C3=O)cc21`, for which the AC50 reads like this: under setting [2], 31.6 µM [rising, single point]; under setting [1], 31.6 µM [rising, single point].
Regarding `Cc1ccc2[nH]c(=O)c(CN(Cc3ccco3)S(=O)(=O)c3c(C)ccc4nsnc34)cc2c1`, the AC50 by setting is: under setting [2], 22.4 µM [rising, single point]; under setting [1], 20 µM [rising, partial curve].
As for `CC(C)CC(=O)NC(=S)Nc1ccc(S(=O)(=O)NC(C)(C)C)cc1`, the AC50 by setting is: under setting [2], 35.5 µM [rising, single point]; under setting [1], 35.5 µM [rising, single point].
